Data as given in publication PMC5996148.
Some of the results follow. For some assays here: The exact form of the protein is not confirmed.

Protein sequences, listed by entry. Tags and fused reporters are not part of them. Lines headed by an entry give the natural chain unless they say otherwise; changes in a name come on top.
UniProt Q9NP72: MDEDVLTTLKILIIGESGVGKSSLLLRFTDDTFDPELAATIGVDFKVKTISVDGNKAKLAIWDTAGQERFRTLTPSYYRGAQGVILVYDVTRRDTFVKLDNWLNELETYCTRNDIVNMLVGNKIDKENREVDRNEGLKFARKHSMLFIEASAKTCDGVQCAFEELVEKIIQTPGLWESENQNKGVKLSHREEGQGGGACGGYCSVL

Experiments:
Assay in all cases: protein microarray (ProtoArray v5.0), streptavidin-Alexa Fluor 647
Conditions in all cases: 3'-biotin; 20 mM Tris (pH 7.5), 5 mM MgCl2, 100 mM KCl, 0.1% Tween-20, A/T-rich and random oligonucleotide blockers; temperature not stated; high values mean tight binding
[1] = tested on: Pyruvate kinase isozymes R/L (human)
[2] = tested on: QARS (human)
[3] = tested on: QPCTL (human)
[4] = tested on: Quinone oxidoreductase (human)
[5] = tested on: RAB11B (human)
[6] = tested on: RAB14 (human)
[7] = target: RAB18 (UniProt Q9NP72)
[8] = tested on: RAB1B (human)
[9] = tested on: RAB27A (human)
[10] = tested on: RAB2A (human)
[11] = tested on: RAB32 (human)
[12] = tested on: RAB33A (human)
[13] = tested on: RAB33B (human)
[14] = tested on: RAB34 (human)
[15] = tested on: RAB37 (human)
[16] = tested on: RAB39 (human)
[17] = tested on: RAB3B (human)
[18] = tested on: RAB3C (human)
[19] = tested on: RAB3IL1 (human)
[20] = tested on: RAB43 (human)

Q: Which binding signal [1] does the source give for “GGGAGGCTGAGGCAGG [G4-1 biotinylated (PQS2)]” here?
A: The binding signal was -0.342 z-score.

Q: And the binding signal [2]?
A: The binding signal was -0.33 z-score.

Q: What about the binding signal [3] of the same sequence?
A: The binding signal was -0.229 z-score.

Q: What about the binding signal [4] of the same sequence?
A: Its binding signal is -0.274 z-score.

Q: What about the binding signal [5] of the same sequence?
A: The binding signal was -0.264 z-score.

Q: And the binding signal [6]?
A: The binding signal was -0.312 z-score.

Q: And the binding signal [7]?
A: The binding signal was -0.329 z-score.

Q: And the binding signal [8]?
A: Its binding signal is -0.354 z-score.

Q: What about the binding signal [9] of the same sequence?
A: Its binding signal is -0.356 z-score.

Q: And the binding signal [10]?
A: The binding signal was -0.335 z-score.

Q: And the binding signal [11]?
A: Its binding signal is -0.25 z-score.

Q: And the binding signal [12]?
A: The binding signal was -0.29 z-score.

Q: What about the binding signal [13] of the same sequence?
A: Its binding signal is -0.34 z-score.

Q: What about the binding signal [14] of the same sequence?
A: Its binding signal is -0.308 z-score.

Q: And the binding signal [15]?
A: The binding signal was -0.335 z-score.

Q: What about the binding signal [16] of the same sequence?
A: Its binding signal is -0.305 z-score.

Q: What about the binding signal [17] of the same sequence?
A: Its binding signal is -0.335 z-score.

Q: What about the binding signal [18] of the same sequence?
A: The binding signal was -0.339 z-score.

Q: And the binding signal [19]?
A: The binding signal was -0.319 z-score.

Q: What about the binding signal [20] of the same sequence?
A: The binding signal was -0.307 z-score.
